Experiment [1] deals with T1, REV7 (R124A mutant), full-length (human, UniProt Q9UI95 1-211, R124A).
T1 construct: REV7 (MAD2L2, MAD2B), human, 211 residues, R124A; R124A was introduced to improve crystallization; also called MAD2L2; MAD2B; source: E. coli BL21 CodonPlus(DE3)-RIL, coexpressed with the SHLD3 fragment, purified (HisTrap, HiTrap Q, Superdex 200); not shown: His6-SUMO, N-terminal, cleaved
Put plainly: SEC-MALS; coexpressed, co-purified SHLD3(35–74)–REV7(R124A) complex; Superdex200 10/300, 20 mM Tris·HCl pH 7.5, 150 mM NaCl, 2 mM DTT; both purified.

Amino acid sequences for entries named in this document (tags omitted). A change or cut given only in a name is not applied to a line headed by its entry.
UniProt Q9UI95: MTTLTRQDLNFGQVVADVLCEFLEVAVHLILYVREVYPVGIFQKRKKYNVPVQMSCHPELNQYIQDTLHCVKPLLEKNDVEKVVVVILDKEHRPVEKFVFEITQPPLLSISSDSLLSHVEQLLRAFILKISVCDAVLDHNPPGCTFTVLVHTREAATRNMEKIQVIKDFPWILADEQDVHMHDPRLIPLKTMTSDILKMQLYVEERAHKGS
UniProt Q86V20: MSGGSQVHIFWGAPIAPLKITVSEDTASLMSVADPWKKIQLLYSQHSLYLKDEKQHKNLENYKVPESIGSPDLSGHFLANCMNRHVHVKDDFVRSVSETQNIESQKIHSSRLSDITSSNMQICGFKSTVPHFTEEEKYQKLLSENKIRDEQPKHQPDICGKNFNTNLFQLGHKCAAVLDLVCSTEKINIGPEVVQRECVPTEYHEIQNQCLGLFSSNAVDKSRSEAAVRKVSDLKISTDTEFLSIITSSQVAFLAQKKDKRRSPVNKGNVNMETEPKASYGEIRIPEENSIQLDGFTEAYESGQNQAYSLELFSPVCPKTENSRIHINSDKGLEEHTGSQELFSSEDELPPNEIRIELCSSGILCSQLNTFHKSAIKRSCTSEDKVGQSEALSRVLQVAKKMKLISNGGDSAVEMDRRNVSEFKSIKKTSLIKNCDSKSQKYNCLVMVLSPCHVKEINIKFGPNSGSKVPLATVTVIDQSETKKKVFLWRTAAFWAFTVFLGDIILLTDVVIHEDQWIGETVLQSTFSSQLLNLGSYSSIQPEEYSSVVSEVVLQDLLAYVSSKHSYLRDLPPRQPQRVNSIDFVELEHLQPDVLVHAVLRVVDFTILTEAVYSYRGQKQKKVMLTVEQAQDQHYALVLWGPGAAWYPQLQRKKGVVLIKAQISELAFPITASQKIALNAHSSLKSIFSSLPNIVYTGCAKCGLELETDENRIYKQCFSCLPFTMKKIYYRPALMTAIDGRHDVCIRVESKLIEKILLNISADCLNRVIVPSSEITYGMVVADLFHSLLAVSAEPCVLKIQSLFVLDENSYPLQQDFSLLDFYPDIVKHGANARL

The target in experiment [2] is T2, SHLD3 fragment (residues 1 to 58), the SHLD3 part of SHLD2.3 (human) (UniProt Q6ZNX1).
T2 sequence: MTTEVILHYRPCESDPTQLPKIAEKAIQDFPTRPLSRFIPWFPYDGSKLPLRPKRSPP
Nature of the experiment: crystal structure; SHLD2.3–REV7_(4) complex (peak Q2); hanging drop, 0.1 M Na acetate pH 5.6, 1.5 M Na formate, 20 °C; 3.8 Å; both purified.

Another experiment addresses T3, REV7 (human, UniProt Q9UI95 1-211).
T3 construct: REV7 (MAD2L2, MAD2B), human, 211 residues; also called MAD2L2; MAD2B; not shown: His6-SUMO, N-terminal, cleaved
The description is as above.

From paper PMC7923543, “Molecular mechanisms of assembly and TRIP13-mediated remodeling of the human Shieldin complex” (Proceedings of the National Academy of Sciences of the …, 2021) come the findings set out here.

These are yes or no findings as the source states them, for the method shown. Some results given as binding are weak or reduced against the parent protein; the word gives no strength.

On to “REV7 (R124A mutant), full-length (from UniProt Q9UI95 1-211)”, for which, in experiment [1], the binding entry was “no binding”.

B1: SHLD2 fragment (residues 1 to 19), the SHLD2 part of SHLD2.3 (domain or fragment, human, UniProt Q86V20 1-19, looked up)
chain: MSGGSQVHIFWGAPIAPLK
notes: In the crystal it stood on one chain with SHLD3(1-58); written apart for the SHLD2–SHLD3 and SHLD2–REV7 contacts; also called SHLD2(residues 1 to 19); source: E. coli BL21 CodonPlus(DE3)-RIL, as part of the SHLD2.3 fusion chain, purified with REV7
Turning to B1, in experiment [2], the binding result is listed as “binds”.

B2: SHLD3 fragment (residues 1 to 58), the SHLD3 part of SHLD2.3 (domain or fragment, UniProt Q6ZNX1 1-58)
chain: MTTEVILHYRPCESDPTQLPKIAEKAIQDFPTRPLSRFIPWFPYDGSKLPLRPKRSPP
In the case of B2, the binding entry in the experiment with REV7 was “binds”.
